# Several values for one entry are separate records, joined by “and”; a condition that tells them apart may be missing. Equal entries are not always repeated. Out of some 300,000 compounds screened, about 3,700 (1.2%) were called active. This list was built around the results that the source calls inconclusive (neither active nor inactive); the mix of calls is not that of the screen. Calls come from the whole dose curve; tested in HEK293 cells. A potency beside an inconclusive call is a rough fit, not a confirmed value.
# Assay: qHTS for Inhibitors of binding or entry into cells for Lassa Virus; note: nearly all actives have a fitted effect of over 50% in size
# Conditions: Lassa virus pseudotype entry inhibition, cell reporter; activity change, negative = inhibition: at 37.9 µM (top of the series) unless noted
# % is set by controls: 0 for no effect and ±100 for the full control effect; potency is the fitted concentration of half-maximal effect.
Compound,Potency,"activity change, negative = inhibition"
CCc1nnc(NC(=O)c2nc(S(=O)(=O)Cc3ccc(C)cc3)ncc2Cl)s1,"inconclusive: 20 µM [inhibitor, partial curve, poor fit] and inconclusive: 35.5 µM [inhibitor, single point]",
Cn1nnnc1SCC(=O)Nc1ncc(C(F)(F)F)cc1Cl,"inconclusive: 31.6 µM [activator, single point]",
COc1ccc(-n2cnnc2SCc2ncc(-c3ccccc3)o2)cc1,"inconclusive: 23.1 µM [inhibitor, single point]",
Cc1cc(C)n(-c2cc(N3CCN(C(=O)c4cccc(F)c4)CC3)ccc2[N+](=O)[O-])n1,"inconclusive: 29.1 µM [inhibitor, single point]",
O=C(c1ccc(N2CCOCC2)cc1)c1cccs1,"inconclusive: 23.1 µM [inhibitor, partial curve, poor fit]",
CC(C)CNS(=O)(=O)c1ccc(CCC(=O)N2CCN(Cc3ccc4c(c3)OCO4)CC2)cc1,"inconclusive: 31.6 µM [inhibitor, partial curve, poor fit]",
CC(=O)Nc1ccc(NC(=O)c2ccc(NS(=O)(=O)c3cc(C(C)(C)C)cc(C)c3C)cc2)cc1,"inconclusive: 5.62 µM [activator, single point]",
Cc1ccc2nc(-c3ccc(O)cc3)oc2c1,"inconclusive: 6.31 µM [inhibitor, full curve, poor fit]",
O=C1NC(=S)SC1=Cc1cccs1,,inactive: 3.78% [at 46.1 µM]
Oc1ccc(CNc2ccc(F)cc2)c2cccnc12,"inconclusive: 29.1 µM [inhibitor, single point]",
CCOC(=O)c1c(NC(=O)/C=C/c2ccc(C(C)C)cc2)sc2c1CCC2,"inconclusive: 35.5 µM [inhibitor, single point]",
O=C(Nc1ccc(S(=O)(=O)N2CCOCC2)cc1)c1ccc(Br)o1,,inactive: 12.6%
COc1cccc(NC(=O)CSc2nc3ccc(NC(=O)c4cccs4)cc3s2)c1,"inconclusive: 3.16 µM [activator, single point]",
COc1ccc(/C=N/NC(=O)C(=O)N2CCCC2)cc1,"inconclusive: 28.2 µM [activator, single point]",
CCN(CC)c1ccc(/C=N/N2CCOCC2)cc1,"inconclusive: 23.1 µM [inhibitor, single point]",
CC(C)(C)NC(=O)c1cccc(NC(=O)Cc2cccs2)c1,"inconclusive: 35.5 µM [activator, single point]",
CN(C(=O)c1ccno1)c1nnc(-c2ccccn2)s1,,inactive: 8.26%
N=C1N(/N=C/c2ccccc2)C(=Nc2ccccc2)C(=S)N1c1ccccc1,,inactive: 5.64%
O=C(CN1CCN(CC(=O)Nc2ccc(Cl)cc2)CC1)Nc1ccc(F)cc1,"inconclusive: 5.62 µM [activator, single point]",
O=C(NC1CCCCCC1)c1ccc(OCC2CCCO2)cc1 (configuration not stated),"inconclusive: 11.2 µM [inhibitor, single point]",
CC1=C(C(=O)OC(C)C)C(c2cccs2)C(C(=O)OC(C)C)=C(C)N1,"inconclusive: 35.5 µM [inhibitor, single point]",

Compound,Potency,"activity change, negative = inhibition"
CCCCc1c(C)c(C#N)c2[nH]c3ccccc3n2c1=O,"inconclusive: 35.5 µM [inhibitor, single point]",
O=C(CSc1ccc(C(F)(F)F)cc1[N+](=O)[O-])N1CCOCC1,,inactive: 3.08%
CCN(CC)CC#CCOC(=O)C(O)(c1ccccc1)C1CCCCC1 (configuration not stated),"inconclusive: 29.1 µM [inhibitor, partial curve, poor fit] and inconclusive: 11.6 µM [inhibitor, partial curve]",
Cc1cc(C)n(C(=O)/C=C/c2cccs2)n1,,inactive: 6.01% [at 46.1 µM]
Cc1oc2ccc(O)c(CN(C)Cc3ccccc3)c2c1C(=O)Nc1ccccc1,"inconclusive: 35.5 µM [inhibitor, single point]",
O=C(CCc1cn(Cc2ccc(F)cc2)c2ccccc12)NCCc1ccc(Cl)cc1,,inactive: 13.6% [at 46.1 µM]
CCOc1ccc(N=C(C)C2=C(O)c3ccccc3C2=O)cc1,"inconclusive: 7.08 µM [inhibitor, partial curve, poor fit]",
Cn1c(SCC(=O)N2c3ccccc3Sc3ccc(Cl)cc32)nnc1-c1ccco1,"inconclusive: 11.6 µM [inhibitor, partial curve]",
CSc1nnc(NC(=O)c2ccc(S(=O)(=O)N(C)C)cc2)s1,,inactive: -21.4%
Cc1cccc(C(=O)Nc2sc3c(c2C(=O)N2CCCCC2)CCC(C)C3)c1 (configuration not stated),,inactive: 4.53% [at 46.1 µM]
Cc1noc(C)c1COc1cccc(C(=O)OC(C)C(=O)Nc2ccc3c(c2)OCO3)c1 (configuration not stated),"inconclusive: 9.2 µM [inhibitor, partial curve, poor fit]",
CC(=O)N1CCOc2cc(S(=O)(=O)NC(C)c3ccccc3)c(Cl)cc21 (configuration not stated),"inconclusive: 3.98 µM [activator, full curve, poor fit]",
COc1cc(CNc2ccc3[nH]c(=O)[nH]c3c2)ccc1OCc1ccccc1Cl,"inconclusive: 10 µM [inhibitor, single point]",
Cc1ccc(C(=O)CCC(=O)Nc2ncccc2O)cc1,,inactive: -20.2%
CCC(=O)NN1CCc2cc3ccc(C)cc3nc21,,inactive: 23.5% [at 46.1 µM]
O=C(CCn1ccc([N+](=O)[O-])n1)NC1CCCCCC1,,inactive: 7.19%
O=C(NNC(=S)Nc1ccc(Br)cc1)c1ccccc1Br,"inconclusive: 3.98 µM [inhibitor, partial curve, poor fit]",
COc1cccc(C2=C(C(C)=O)Sc3nncn3N2C(C)=O)c1,"inconclusive: 35.5 µM [inhibitor, single point]",
Cc1ccc(CN(Cc2ccco2)C(=O)COc2ccccc2C)cc1,"inconclusive: 1.12 µM [activator, partial curve, poor fit]",
O=C(CCN1C(=O)CSC1=O)Nc1ccc(Br)cc1,,inactive: -1.17%
CC[C@@H](C)[C@H]1O[C@]2(CC[C@H]1C)C[C@@H]1C[C@@H](CC=C(C)[C@@H](O[C@H]3C[C@H](OC)[C@@H](O[C@H]4C[C@H](OC)[C@@H](O)[C@H](C)O4)[C@H](C)O3)[C@@H](C)C=CC=C3CO[C@@H]4[C@H](O)C(C)=C[C@@H](C(=O)O1)[C@]34O)O2,active: 2.59 µM,
